Measured values from publication PMC3050892.

Experiments:
[1] = molecular target: T1, human FEZ1 (221–392) (human) (UniProt Q99689); assay: two-hybrid; LexA-bait fusions (pBTM116) of FEZ2 (207-353), FEZ1 (221-392) or UNC-76 C-terminus against pACT2 prey clones in yeast L40; clones first isolated in library screens (human fetal brain and bone marrow cDNA) with the FEZ2 bait, then one representative clone of each prey tested one-to-one against the three baits; growth on minimal medium without Trp, Leu, His (10 mM 3-AT in the screen) and beta-galactosidase filter assay; in duplicate
T1 sequence: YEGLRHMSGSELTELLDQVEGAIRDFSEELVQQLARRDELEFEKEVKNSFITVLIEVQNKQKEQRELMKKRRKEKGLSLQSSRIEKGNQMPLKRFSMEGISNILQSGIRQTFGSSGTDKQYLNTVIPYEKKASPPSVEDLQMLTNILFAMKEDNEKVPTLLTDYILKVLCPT

[2] = molecular target: T2, human FEZ2 (207–353) (human) (UniProt Q9UHY8); assay: as above
T2 sequence: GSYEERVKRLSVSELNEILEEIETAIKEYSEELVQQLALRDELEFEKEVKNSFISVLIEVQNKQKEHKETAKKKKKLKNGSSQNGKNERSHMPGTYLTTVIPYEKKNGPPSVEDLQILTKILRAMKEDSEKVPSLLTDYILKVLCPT

| Substance | binding [1] | binding [2] |
| --- | --- | --- |
| general transcription factor II i repeat domain 2 (human) (domain or fragment) | no binding | binds |
| short coiled-coil protein, isoform CRA_a (human) (domain or fragment) | binds | binds |

These are yes or no findings as the source states them, for the method shown. Binding calls can cover weak binding; strength is not graded here.
